This passage reports binding results from paper PMC8104107.

Amino acid sequences for entries named in this document (tags omitted).
UniProt P15682: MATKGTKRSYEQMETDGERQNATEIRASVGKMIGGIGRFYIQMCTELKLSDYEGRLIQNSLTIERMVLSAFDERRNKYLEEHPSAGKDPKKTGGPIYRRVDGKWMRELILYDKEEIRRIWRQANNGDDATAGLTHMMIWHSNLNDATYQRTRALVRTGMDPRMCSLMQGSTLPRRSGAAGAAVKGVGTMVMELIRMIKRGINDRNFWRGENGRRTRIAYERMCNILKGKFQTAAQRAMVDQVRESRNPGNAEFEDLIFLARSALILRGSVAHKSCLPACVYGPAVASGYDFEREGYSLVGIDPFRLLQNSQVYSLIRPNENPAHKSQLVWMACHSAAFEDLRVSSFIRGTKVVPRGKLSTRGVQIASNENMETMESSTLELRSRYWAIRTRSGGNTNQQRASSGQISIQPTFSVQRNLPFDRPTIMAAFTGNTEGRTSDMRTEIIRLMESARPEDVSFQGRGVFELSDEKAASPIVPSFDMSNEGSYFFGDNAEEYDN
UniProt P05777: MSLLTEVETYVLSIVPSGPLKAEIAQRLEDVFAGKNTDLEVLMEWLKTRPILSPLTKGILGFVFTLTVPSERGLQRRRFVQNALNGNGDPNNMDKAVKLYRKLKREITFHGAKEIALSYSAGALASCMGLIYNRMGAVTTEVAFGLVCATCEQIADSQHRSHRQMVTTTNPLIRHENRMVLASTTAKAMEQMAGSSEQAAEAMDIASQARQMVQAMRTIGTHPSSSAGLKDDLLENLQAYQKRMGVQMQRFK

For this assay, the target named is FLAG-NP (plasmid pHW2000-FLAG-GFP-NP) (influenza A virus A/WSN/33 (H1N1)) (UniProt P15682). As to the kind of experiment: co-IP; […] (50 mM Tris-HCl pH 7.4, 150 mM NaCl, 1% Triton X-100); […].

These are yes or no findings as the source states them, for the method shown. Binding seen in cells or lysates may run through a third protein. Some binding calls cover weakened binding; strength is not graded here.

Regarding “M1 of influenza A/WSN/33 (H1N1) virus made in infected cells (from UniProt P05777 1-252)”, the binding result is “binds”.
